In publication PMC4081115:
Results are given in words; binding and its absence hold for the method and conditions named. Binding seen in cells or lysates may run through a third protein. Some results given as binding are weak or reduced against the parent protein; the word gives no strength. Where a sequence is shown, tags or fusion partners need not be part of it.

The chains behind the UniProt entries cited, without tags or fusion partners. Residues count along the entry.
UniProt O95831, residues 102-613: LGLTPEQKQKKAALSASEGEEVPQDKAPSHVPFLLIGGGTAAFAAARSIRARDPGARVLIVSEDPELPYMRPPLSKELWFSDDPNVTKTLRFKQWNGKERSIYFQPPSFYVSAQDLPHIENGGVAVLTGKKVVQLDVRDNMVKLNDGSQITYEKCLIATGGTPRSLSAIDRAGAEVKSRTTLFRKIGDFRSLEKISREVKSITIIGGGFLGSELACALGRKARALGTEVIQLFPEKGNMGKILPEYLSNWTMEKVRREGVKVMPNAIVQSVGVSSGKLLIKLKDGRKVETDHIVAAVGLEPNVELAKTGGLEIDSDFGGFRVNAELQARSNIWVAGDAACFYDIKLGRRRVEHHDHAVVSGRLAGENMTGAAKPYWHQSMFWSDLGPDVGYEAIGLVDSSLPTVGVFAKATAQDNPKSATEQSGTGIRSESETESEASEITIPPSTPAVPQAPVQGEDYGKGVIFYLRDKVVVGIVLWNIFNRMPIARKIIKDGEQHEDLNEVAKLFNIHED

Target: T1, FLAG-tagged STK3 (human (cDNA from HEK293 cells)) (UniProt Q13188)
T1 sequence: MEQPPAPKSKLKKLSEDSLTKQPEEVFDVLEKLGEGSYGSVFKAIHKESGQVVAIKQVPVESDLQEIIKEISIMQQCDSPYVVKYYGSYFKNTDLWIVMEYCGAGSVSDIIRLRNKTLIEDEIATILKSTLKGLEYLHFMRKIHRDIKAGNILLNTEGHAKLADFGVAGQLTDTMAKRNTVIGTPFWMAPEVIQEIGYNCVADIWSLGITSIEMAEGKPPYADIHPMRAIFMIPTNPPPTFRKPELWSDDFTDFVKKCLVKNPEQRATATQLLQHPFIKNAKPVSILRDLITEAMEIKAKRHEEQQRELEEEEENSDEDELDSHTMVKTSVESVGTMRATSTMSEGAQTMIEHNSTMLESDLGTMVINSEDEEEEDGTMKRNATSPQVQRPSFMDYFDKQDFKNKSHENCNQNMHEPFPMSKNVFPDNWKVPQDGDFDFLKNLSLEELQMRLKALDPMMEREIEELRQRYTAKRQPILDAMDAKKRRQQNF
Experiment: co-IP; Caki-1 cells transfected with pcDNA3.1-AIF-V5 or pCMV-Flag-STK3 separately, harvested 12 h later; lysates incubated overnight with V5 or FLAG antibody, protein A beads, western blot

“Apoptosis-inducing factor (endogenous, Caki-1) (from UniProt O95831 102-613)” was tested, and the binding was “binds”.
